The supplement of paper PMC3334620
In all, about 33,000 sequences were measured (“E-score (-0.5 to 0.5)”: median about -0.0014, highest 2% from about 0.25 on). This is one part of the list.

biological target: T1, Cad1 (UniProt P24813); experiment: PBM E-score (8-mer binding enrichment) (E-score (-0.5 to 0.5)); higher = stronger / more preferred TF binding; conditions: protein concentration: 100 nM; construct: GST-full length
T1 sequence: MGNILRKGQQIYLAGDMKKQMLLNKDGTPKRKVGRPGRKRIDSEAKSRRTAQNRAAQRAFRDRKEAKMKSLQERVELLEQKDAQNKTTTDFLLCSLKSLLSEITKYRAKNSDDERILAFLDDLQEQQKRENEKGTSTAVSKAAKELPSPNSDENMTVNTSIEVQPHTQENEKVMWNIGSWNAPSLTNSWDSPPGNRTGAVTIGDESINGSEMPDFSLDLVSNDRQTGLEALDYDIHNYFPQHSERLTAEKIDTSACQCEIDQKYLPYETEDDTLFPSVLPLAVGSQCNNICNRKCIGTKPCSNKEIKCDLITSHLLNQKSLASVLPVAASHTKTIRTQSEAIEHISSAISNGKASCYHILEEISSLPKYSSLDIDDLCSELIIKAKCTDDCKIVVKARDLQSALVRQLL
Method in brief: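 The E-score, a modified Wilcoxon-Mann-Whitney statistic, was computed by the Universal PBM Analysis Suite for every ungapped eight-base word pooled with its reverse complement. Scans behind it were normalised with masliner after bound GST-tagged yeast transcription factors were detected with fluorescent anti-GST. The proteins, at about 100-200 nM, had been applied to universal all-10-mer Agilent arrays made double-stranded by primer extension.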

Sequence | PBM E-score
CGAAGGTA | 0.00494
GCACAGAC | 0.096
ACATTTGG | -0.0952
AAGTGAAT | 0.173
CAGTCTTC | -0.194
TAGTTACA | -0.0231
CAGAGGCG | -0.0709
ACTCGCTG | 0.0475
GTTCCAAC | 0.0238
ACCTCAGG | -0.126
ACCAATCG | 0.0493
AGAATGAC | 0.0369
CACCCGGC | -0.252
GTCCGGAC | 0.319
CTCGCCAG | -0.218
CTCTACCA | -0.1
AGAGGGAT | -0.282
AGTAGTGA | 0.0185
AGGGAGGG | -0.147
GGCTATCA | -0.0751
CACTCGAA | -0.0275
AAGAGTTG | 0.069
AGTATGCA | 0.0157
GCGGACAA | 0.206
AAAAATAC | 0.211

Sequence | PBM E-score
ACAAACTC | 0.052
ACCTACGG | -0.361
CGGAAGAG | -0.154
GGATATGA | -0.0132
GTGAACTA | -0.0351
CTCTCGAA | 0.0102
AAGTCGGA | 0.0401
AATCAGAT | 0.134
TGCCGCCA | 0.0461
GAAGGAAC | -0.117
GAATTTCC | 0.164
ATCAGGCC | 0.0828
GAGCGCAC | -0.00739
GTCATATA | 0.0271
CGTATACG | 0.17
AACTAGAC | 0.0391
AGCTCGAG | 0.0033
CGAGCAGA | -0.0763
CGAGAAAG | 0.0518
AAGTTTGC | 0.0667
ATCATGGA | -0.176
GCCGCGGC | 0.347
AACGCACA | 0.15
CATAGCGG | -0.142
ATTTCCTC | 0.173

Quoted at random: 6 entries already listed.
Sequence | PBM E-score
AAGTCGGA | 0.0401
AAGTTTGC | 0.0667
GCCGCGGC | 0.347
GGATATGA | -0.0132
AGCTCGAG | 0.0033
GTGAACTA | -0.0351

Additional entries

Sequence | PBM E-score
AACTCGTA | 0.178
CGCTCTGC | -0.102
AAGAAGTC | -0.0508
ATTTTTCA | 0.204
AGAAGAGA | -0.0757
CTACGAGA | -0.114
ATGCTTGG | -0.0606
CATGCGCG | 0.202
ATCGATCC | 0.0374
TAACCGCA | 0.0919
CGATCAAA | 0.0133
AGGAATTA | 0.15
CCTCCCCG | -0.0239
CAGTTTCG | -0.0539
CTTCTGTA | -0.00063
GGGTTAAA | -0.218
GGTCCGAC | -0.0932
AATGGAGC | 0.084
AACTTCCC | -0.0274
GCGACCGA | 0.0587
CAAACAGG | -0.17
CAGCGGGC | 0.00044
CTCGAAAC | 0.16
AATACAAG | 0.0824
CAGCTCCA | -0.0649

Sequence | PBM E-score
CCGCCCCC | -0.373
GCTTCATA | 0.0649
AAGCAAAA | 0.118
CACACGGG | -0.052
TAGAGAAA | -0.0236
GCGATAGC | -0.0468
CTAATTTC | 0.124
CAAATACA | 0.106
CTGTGGGA | -0.143
CCGAGGGA | -0.174
CGGGCCCC | -0.136
GGTGACAC | -0.126
AGGCGCCA | 0.142
CAGATTCG | -0.00892
CCAGACCC | -0.191
ACCAGATG | -0.0464
TCGCACGA | -0.0443
GGGACTCA | -0.139
TCAAGACA | 0.0237
AGTTTGGC | 0.109
AATAAAAG | 0.0174
CCAAGTCA | -0.132
CCTGCTCC | -0.036
AATCATGA | 0.317
AAAAACTT | -0.0813

A few values from the entries so far:
Entry for GCTTCATA under PBM E-score: 0.0649
Entry for TCGCACGA under PBM E-score: -0.0443
Entry for CTGTGGGA under PBM E-score: -0.143
Entry for AGGCGCCA under PBM E-score: 0.142
Entry for TCAAGACA under PBM E-score: 0.0237
Entry for GGGACTCA under PBM E-score: -0.139
Entry for TAGAGAAA under PBM E-score: -0.0236

The list continues.

Sequence | PBM E-score
AGTGTGTA | 0.0886
GAGTTATC | 0.219
CACCTTTA | -0.051
ATACCTAG | -0.0127
AAGAGGAG | -0.158
GATAGTGC | -0.0578
ACTAATGG | 0.209
CGGCGCCA | 0.0675
CCTGACAC | 0.0201
ACGCCCCG | -0.0769
CAGAGCCG | -0.0105
GATTCAAA | -0.0456
CATCCCAC | -0.368
GTTTGGGA | 0.0291
AACAAGCT | -0.0349
ACACCACT | 0.187
CCACCCGC | -0.196
CAAATTCA | -0.108
AATGTCCA | 0.0701
GATTTACC | 0.0452
ATGGCAAT | 0.0002
CTAGCTAC | -0.0695
GACCGGGA | -0.151
GTAATTGA | 0.11
AGTCCGAG | 0.0467

Sequence | PBM E-score
ACAACCAT | 0.281
AGCTCACC | -0.14
CCACTGAG | -0.337
GATCCAAA | 0.061
TACTACTA | 0.157
AGCACTGG | -0.0911
CGCGATTC | 0.268
AGATCACC | 0.0249
ACCGCATC | -0.116
CGAATCAG | 0.0798
ACACTCGT | -0.0805
CTCATCTA | -0.0841
TACCGGGA | -0.00202
AGTACAGA | 0.0616
AACATTAA | 0.127
CCATACCC | -0.202
CGGAGACA | 0.161
CTGTGGGC | -0.0886
GGCACCGA | 0.0761
AGGAGGGC | -0.353
CTGGGAGC | -0.254
CCATTCCA | -0.0291
GCGAAATA | -0.0552
AACGCGTC | 0.197
AAAACATC | -0.0287

Sequence | PBM E-score
CAACAGAG | -0.174
CGCGGTGA | 0.0991
GAAGCAAC | 0.0175
AATCGCGC | 0.327
AAAATTCG | 0.201
ACCCTTAT | 0.105
CCCCCGGA | -0.335
CATAACGC | 0.123
CATAGCGC | 0.26
GAACTTCC | 0.0173
AGATATCA | 0.209
TGGTATAA | 0.038
CGTTTGAG | 0.00124
CCACACGA | -0.0898
AAACGAAA | 0.287
AAGCTCAG | -0.0186
TAAGCTCA | 0.0541
GATGTGAA | 0.0267
AACGCGTT | 0.153
GTTCCCCA | -0.0947
TAGGAACA | -0.0307
GATATACC | 0.0836
